Results published in PubChem BioAssay AID2685 (National Center for Advancing Translational Sciences (NCATS), 2010).
This is one part of the list. These are further read-outs of the screen, such as a control signal, another cell line or another target. No call is given for them. Compounds called inactive in the main read-out are mostly missing here. Potencies come from curve fits of mixed quality, noted in brackets.

Assay: qHTS Assay for Lipid Storage Modulators in Drosophila S3 Cells;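 on cell number change: cells counted by Cell Tracker Red CMTPX staining in the red channel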
Conditions: BODIPY lipid droplet fluorescence, 18-24 h; for cell number change: measured here: cell count max response, cells fed with added oleic acid
Method in brief: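 Laser-scanning cytometry quantifies lipid droplet accumulation (500–530 nm total intensity; droplet/cell object ratio) in oleic acid-fed (400 uM added) Drosophila S3 cells treated with a concentration series. 20 uM Triacsin C defined 100% inhibition.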

[1] = measured here: cell number channel AC50, cells fed with added oleic acid
[2] = measured here: lipid fluorescence (Fed channel) AC50, cells fed with added oleic acid

Structure (SMILES) | cell number change | AC50 [1] | AC50 [2]
CN(CC(=O)Nc1ccccc1N1CCOCC1)S(=O)(=O)c1ccc(Cl)cc1 | 18.4% | 1.46 µM [rising, partial curve] | 
CSc1ccccc1NC(=O)c1cc(Cl)sc1Cl | 11.1% |  | 0.651 µM [rising, full curve, poor fit]
COCCn1c(SCC(=O)NC2CCCC2)nnc1-c1ccco1 |  |  | 0.112 µM [falling, full curve, poor fit]
Cc1cccc(N2CCN(c3ccc4cc(S(=O)(=O)N5CCCCC5)ccc4n3)CC2)c1C | 15.3% |  | 23.1 µM [rising, partial curve]
Cc1cccc(NC(=S)NCCC(C)C)c1 | -8.31% |  | 6.51 µM [falling, partial curve]
CCN(CC)S(=O)(=O)c1ccc(NC2c3ccccc3C(=O)N2Cc2ccc3c(c2)OCO3)cc1 (centres undefined) |  | 0.517 µM [rising, full curve] | 0.731 µM [rising, full curve]
O=C1C=C(c2cccc3c2oc2ccccc23)C[C@@H](c2ccc(F)cc2)C1 | -5.5% |  | 0.116 µM [falling, single point]
Cc1cc(C)n2c(SCC(=O)Nc3ccccc3)nnc2n1 | 23.6% |  | 23.1 µM [rising, single point]
CC(=O)Nc1ccc2nc(NC(=O)COc3ccccc3Cl)sc2c1 | 67% | 9.2 µM [rising, partial curve, poor fit] | 23.1 µM [rising, partial curve]
CSc1c(CC(=O)Nc2ccccc2C(F)(F)F)n(Cc2ccccc2)c2ccccc12 | 2.67% | 1.3 µM [falling, full curve] | 0.461 µM [falling, full curve, poor fit]
COc1cccc(C(=O)N/N=C2/SCC(=O)N2CCc2ccc(OC)c(OC)c2)c1 |  | 2.31 µM [rising, partial curve] | 1.84 µM [rising, partial curve]
Cc1ccc(C(=O)NCCCn2ccnc2)cn1 | 14.5% | 2.59 µM [falling, partial curve] | 6.51 µM [falling, single point]
COc1ccc(Cl)cc1NC(=O)CN1CCCCCC1 | -21.9% | 2.59 µM [falling, single point] | 5.8 µM [falling, partial curve]
CCOc1cccc2cc(C(=O)NC(C)c3ccccc3)c(=N)oc12 (centres undefined) | 32.4% | 3.66 µM [rising, full curve] | 29.1 µM [rising, single point]
CCn1c(COc2cc(C)ccc2C(C)C)nnc1SCC(=O)Nc1nccs1 | 15.5% |  | 3.26 µM [rising, full curve, poor fit]
CCCCC1C(=O)CC[C@H]2[C@@H]1CC(=O)[C@@H]2C/C=C\CCCC(=O)O (some centres undefined) |  |  | 8.2 µM [falling, partial curve]
Cc1cc(C(=O)CSc2nnnn2-c2ccccc2)c(C)n1CCc1ccccc1 |  | 1.16 µM [rising, partial curve] | 2.06 µM [rising, partial curve]
O=C(COC(=O)CSc1ccc([N+](=O)[O-])cc1)NCCCc1ccccc1 | 5.42% |  | 
C/C=C(\C)C(=O)Nc1cccc(C2=NOC3(C2)C[C@H](C(N)=O)N(C(=O)C(c2ccccc2)c2ccccc2)C3)c1 (some centres undefined) | 13.6% |  | 1.46 µM [rising, partial curve]
Cc1ccc(C(=O)N[C@H](C(=O)N2CCN(c3ccccc3F)CC2)C(C)C)cc1 | 12.6% |  | 3.66 µM [rising, full curve]

Just cell number change and AC50 [2] (four entries from above):
Structure (SMILES)	cell number change	AC50 [2]
CN(CC(=O)Nc1ccccc1N1CCOCC1)S(=O)(=O)c1ccc(Cl)cc1	18.4%	
COCCn1c(SCC(=O)NC2CCCC2)nnc1-c1ccco1		0.112 µM [falling, full curve, poor fit]
CSc1c(CC(=O)Nc2ccccc2C(F)(F)F)n(Cc2ccccc2)c2ccccc12	2.67%	0.461 µM [falling, full curve, poor fit]
C/C=C(\C)C(=O)Nc1cccc(C2=NOC3(C2)C[C@H](C(N)=O)N(C(=O)C(c2ccccc2)c2ccccc2)C3)c1 (some centres undefined)	13.6%	1.46 µM [rising, partial curve]

Going on with the list.

Structure (SMILES) | cell number change | AC50 [1] | AC50 [2]
C/C(=N\NC(=O)c1ccc(Cl)cc1)c1cccs1 | -6.63% |  | 
Cc1ccc(CNc2nc(C)c(C(=O)N(C)C)s2)cc1 | 14% |  | 1.03 µM [falling, single point]
CCC(C)Sc1nc2c(c(=O)n1C)SC(C)C2 (centres undefined) | 21.4% |  | 0.651 µM [falling, full curve]
Cc1cc(C)nc(NS(=O)(=O)c2ccc(NC(=O)CN3C(=O)c4ccccc4C3=O)cc2)n1 |  |  | 5.8 µM [falling, partial curve]
COc1ccc(N2CCN(C(c3cccs3)C(C)NS(=O)(=O)c3ccccc3)CC2)cc1 (centres undefined) | 74.9% | 16.4 µM [rising, single point] | 
CCOC(=O)c1ccc(NC(=O)C2(c3ccc(OC)cc3)CCCC2)cc1 |  |  | 4.11 µM [rising, partial curve]
CN(C)C1(CNC(=O)C2CCN(S(=O)(=O)c3c(Cl)cccc3Cl)CC2)CCCCC1 | 68.7% | 18.4 µM [rising, single point] | 
Cn1ccnc1SCC(=O)NC12CC3CC(CC(C3)C1)C2 | -9.03% |  | 
CCOC(=O)c1ccc(Oc2nc(NC(C)(C)C)nc(N(C)C)n2)cc1 | -25.5% |  | 10.3 µM [falling, partial curve]
Cc1ccc(NC(=O)Cn2c(O)c(N=NC(=O)c3ccncc3)c3ccccc32)cc1 | -23.2% |  | 29.1 µM [falling, single point]
CCOc1ccc(NC(=O)CSc2nnc(CNC(=O)c3cccs3)o2)cc1 | 21.5% | 0.291 µM [rising, full curve, poor fit] | 
O=c1cc(N2CCOCC2)cnn1-c1ccccc1 | -15.3% | 0.116 µM [falling, full curve, poor fit] | 4.61 µM [rising, full curve, poor fit]
Cc1ccc2nc(/C(C#N)=C/c3ccc(O)c(O)c3)[nH]c2c1 | -32% |  | 29.1 µM [falling, single point]
Cc1ccc(C(=O)CCC(=O)OCC(=O)NNC(=O)c2ccccc2Cl)cc1 | -21.6% | 0.731 µM [falling, full curve, poor fit] | 0.13 µM [rising, full curve, poor fit]
Cc1ccc(F)c(CNC(=O)C2CCC(=O)N(CCN3CCOCC3)C2)c1F (centres undefined) | -4.53% |  | 0.58 µM [rising, single point]
N[C@@H](Cc1ccccc1)C(=O)N1CCC(C(=O)N[C@@H](Cc2c[nH]c3ccccc23)C(=O)O)CC1 | 38.7% | 10.3 µM [rising, partial curve] | 
CC(C)(Oc1ccc(Cl)cc1)C(=O)Nc1ccc2oc(=O)ccc2c1 | 26.7% |  | 6.51 µM [rising, single point]
CCOc1cccc(CN2CCN(c3cccc(C(F)(F)F)c3)CC2)c1O | -18.1% |  | 0.291 µM [falling, full curve, poor fit]
Cc1nnc(SCC(=O)N2CC(=O)Nc3ccccc32)n1C | 20.7% |  | 18.4 µM [falling, single point]
O=C(CN(c1ccc(Cl)c(C(F)(F)F)c1)S(=O)(=O)c1ccccc1)N/N=C/c1cccc2c1OCCO2 | -31.2% | 20.6 µM [falling, single point] | 

Structure (SMILES) | cell number change | AC50 [1] | AC50 [2]
CCn1c(=O)c2cc(S(=O)(=O)NCc3ccccc3)ccc2n(CC)c1=O | -10.9% |  | 3.26 µM [rising, partial curve]
O=C(CCC(=O)c1cccs1)Nc1ccc(N2CCCCC2)cc1 | 25.7% |  | 29.1 µM [rising, single point]
Cc1c(OCC(=O)N(C)c2ccccc2)ccc2c3c(c(=O)oc12)CCC3 | 7.89% |  | 
O=C(Nc1nc2c(s1)CCCC2)c1ccc(S(=O)(=O)N2CCCc3ccccc32)cc1 | 6.34% |  | 1.84 µM [rising, partial curve, poor fit]
Cc1ccc(/C=N/n2cnc3sc(C)c(C)c3c2=O)o1 |  | 1.84 µM [rising, single point] | 
O=C(c1cc2cc(Cl)cc(Cl)c2oc1=O)N1CCOCC1 | -0.74% |  | 
COc1ccc(CN2C(=O)c3ccccc3C2OC)cc1 (centres undefined) | -1.66% |  | 
O=C(CCCC(=O)N(CC(=O)NC1CCCC1)Cc1ccc2c(c1)OCO2)Nc1ccccn1 |  |  | 0.116 µM [falling, full curve, poor fit]
COc1ccc(OC)c(-c2csc(NC(=O)Cn3[nH]c(=O)c4ccccc4c3=O)n2)c1 | 18.3% |  | 29.1 µM [falling, single point]
COc1ccc(NC(=O)CSc2nc(N)c(-c3ccccc3)c(=O)[nH]2)cc1 | -0.773% |  | 
COc1ccc2c(c1OC)C(=O)OC2CC(=O)c1ccc(N(C)C)cc1 (centres undefined) | 33.8% | 18.4 µM [rising, single point] | 0.13 µM [rising, full curve, poor fit]
COc1ccc(CN2CC(=O)N3[C@H]4c5ccccc5OC[C@@H]4[C@H](c4ccccc4)[C@]3(C)C2=O)cc1 | 40.6% | 25.9 µM [rising, single point] | 
Cc1ccc(N2C(=O)CC(Sc3nc(C)cc(C)n3)C2=O)cc1 (centres undefined) | -16.8% |  | 0.517 µM [rising, partial curve, poor fit]
CC1CC1C(=O)N(C)CC(=O)Nc1ccc(Cl)c(C(F)(F)F)c1 (centres undefined) | 28% |  | 
Cc1cc(S(=O)(=O)N(Cc2ccccc2F)C2CC2)ccc1-n1cnnn1 | -24.1% |  | 11.6 µM [falling, partial curve]
Cc1ccccc1-n1c(SCC(=O)NC2CCS(=O)(=O)C2)nc2ccccc2c1=O (centres undefined) | -9.61% |  | 29.1 µM [falling, single point]
COc1ccc(N2CCN(C(=O)c3sc4ncn(CC(=O)N5CCCCC5C)c(=O)c4c3C)CC2)cc1 (centres undefined) | -37.3% | 16.4 µM [falling, single point] | 
Cc1ccc(C)c(CN2C(=O)CSc3ccc(C(=O)NCC(C)CN4CCC(C)CC4)cc32)c1 (centres undefined) |  |  | 29.1 µM [falling, single point]
